Source: ChEMBL document CHEMBL3988442, “University of Dundee, Small-Polar-MMV Screening Library” (2021).

Chains of the proteins cited; added tags and fusions are not shown.
UniProt E9BF75, entry or part of it: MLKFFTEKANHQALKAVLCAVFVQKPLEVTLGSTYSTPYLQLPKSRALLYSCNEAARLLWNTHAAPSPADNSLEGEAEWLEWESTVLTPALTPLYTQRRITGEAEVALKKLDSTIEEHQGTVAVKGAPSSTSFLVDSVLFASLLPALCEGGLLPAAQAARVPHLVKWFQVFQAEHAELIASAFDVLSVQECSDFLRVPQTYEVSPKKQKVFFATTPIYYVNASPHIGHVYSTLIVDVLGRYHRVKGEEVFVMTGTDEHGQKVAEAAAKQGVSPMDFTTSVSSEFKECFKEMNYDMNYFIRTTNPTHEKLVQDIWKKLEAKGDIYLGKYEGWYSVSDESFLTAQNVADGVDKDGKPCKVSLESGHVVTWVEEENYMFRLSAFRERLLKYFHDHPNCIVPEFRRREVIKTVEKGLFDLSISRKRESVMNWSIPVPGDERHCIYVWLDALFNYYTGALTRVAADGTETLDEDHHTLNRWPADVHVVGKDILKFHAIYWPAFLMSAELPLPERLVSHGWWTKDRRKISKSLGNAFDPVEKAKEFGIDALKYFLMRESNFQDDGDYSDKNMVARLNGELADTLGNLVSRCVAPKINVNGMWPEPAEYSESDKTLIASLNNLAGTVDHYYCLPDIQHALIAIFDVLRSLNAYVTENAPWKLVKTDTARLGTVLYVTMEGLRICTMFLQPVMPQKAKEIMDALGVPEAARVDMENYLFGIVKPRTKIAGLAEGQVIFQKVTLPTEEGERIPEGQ

LdMetRS: 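Methionyl-tRNA synthetase (putative), Leishmania donovani (UniProt E9BF75). Primary screen of methionyl-tRNA synthetase; the read-out is not stated. The test concentration is not given. The values are filed as inhibition. About 68,000 compounds were tested under these conditions; 0.035% (about 24) showed 50% or more at least once.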
Mtb heat-shock: 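Assay on Mycobacterium tuberculosis, filed only as a heat shock assay from Cornell; the read-out is not stated. The concentration is filed as 10 mM, unlikely as a test dose, so the dose is not known. Direction is inferred from retests: higher values go with stronger inhibition. Of about 69,000 compounds tested this way, about 930 (1.4%) reached 50% or more in at least one test.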

Results are percentages, as filed.
The record does not define 0% and 100%; most values in the screen are far below 50% and negative numbers occur (in some assays of this library far below -100).
This is an unselected part of the compounds tested.
A dash means the value is not listed here; it may have been measured.

| SMILES | LdMetRS | Mtb heat-shock |
|---|---|---|
| `Cc1ccoc1C(=O)N1C[C@@H]2COC[C@]2(COCc2cccnc2)C1` | 4.255 | - |
| `c1cncc(C2=NOC3(CCN(Cc4c[nH]c5ccccc45)CC3)C2)c1` | 2.857 | -12.44 |
| `O=C(O)C(F)(F)F.[H][C@@]12CCN(Cc3ccoc3)C[C@@]1([H])O[C@H](C(=O)N1CCCC1)C2` | - | 5.199 |
| `Cc1ccc(CN2C[C@H](OCC3CCN(C)CC3)[C@H]3COC[C@H]32)o1` | 8.791 | - |
| `CCN1CCC(N2CCC(C(=O)N(C)C)CC2)CC1` | 10.99 | - |
| `Cc1cnc(N2CCc3c(cnc(C)c3C(=O)O)C2)nc1.O=C(O)C(F)(F)F` | - | -13.24 |
| `Cc1c(Br)cccc1S(=O)(=O)NCc1ccnn1C` | 13.7 | 3.904 |
| `Cc1nc(N2CCN(C(=O)CC3CCCC3)CC2)c2cnn(C)c2n1` | 11.49 | -2.026 |
| `COc1cc(C)nc(N2CCN(C(=O)c3cc(Cl)c[nH]3)CC2)n1` | 12.77 | 6.099 |
| `Fc1ccc(CNCC2OCCc3cn(CC4CC4)nc32)cc1` (centres undefined) | 13.8 | - |
| `CC(C)c1nn(C)c(Cl)c1CNCc1ccc2c(c1)OCCO2.Cl` | - | -13.76 |
| `O=C(O)c1cc(C2CC2)nc2c(Cl)cnn12` | 7.311 | 12.34 |
| `Fc1cccc(N2CCCC3(CN(Cc4ccco4)CCO3)C2)c1.O=C(O)C(F)(F)F.O=C(O)C(F)(F)F` (centres undefined) | - | 0.562 |
| `CN(C)C(=O)COC1COC2(CCN(CC3CC3)CC2)C1.O=C(O)C(F)(F)F` (centres undefined) | - | -0.2901 |
| `Cc1cccnc1Nc1nccc(C2CN(CC(N)=O)C2)n1` | 21.86 | -8.452 |
| `Cn1ccnc1CN(CCCO)CC(F)(F)F` | 3.548 | -13.72 |
| `Cc1ccc2c(c1)CN(C(=O)c1ccccc1F)C(CN(C)C)CO2` (centres undefined) | 8.562 | - |
| `O=C(NCc1ccncc1)C1CN(c2nc3ccccc3s2)CCN1` (centres undefined) | 6.634 | 35.46 |
| `CCc1nc(CN2CCCN(c3ncnc4ccccc34)CC2)no1` | 5.512 | -1.228 |
| `O=C(NCC1CCS(=O)(=O)C1)N(Cc1ccco1)C1CC1` (centres undefined) | 9.887 | 1.952 |
| `CC(Cn1cccn1)NCc1csc(COc2ccccc2)n1` (centres undefined) | 13.8 | 96.83 |
| `Cc1ccc(C2CSCCN2C(=O)c2ccc(C(N)=O)cc2)o1` (centres undefined) | 15.24 | 1.772 |
| `O=S(=O)(C1CC1)N1CCc2ncnc(-c3ccc(F)cc3)c2CC1` | 3.833 | 26.38 |
| `Cc1cccc(C(=O)NCc2ccc(CS(N)(=O)=O)cc2)n1` | 17.95 | 2.927 |
| `CNC(=O)CN1CCCC12CCN(Cc1c[nH]cn1)CC2` | 6.628 | - |
| `Cc1ccccc1C1(CNC(=O)CCN2C(=O)CCC2=O)CC1` | 7.606 | 12.37 |
| `O=c1[nH]c2nc(N3CCSCC3)ncc2c(=O)n1-c1cccc(F)c1` | 9.859 | 9.171 |
| `CCC(O)CN1CCN(C(=O)c2ccn(-c3cccc(F)c3)n2)CC1` (centres undefined) | 16.85 | 2.949 |
| `CC(C)Sc1ccc(C(C)NC(=O)Cn2cccnc2=O)cc1` (centres undefined) | 12.03 | 3.889 |
| `CO[C@@H]1CN(c2ccccc2)S(=O)(=O)[C@@]12CCN(Cc1ccccc1)C2` | 7.945 | 19.48 |
| `Cc1nc(COc2ccc(CNCC3CN(C)CCO3)cc2)cs1` (centres undefined) | -1.742 | -1.29 |
| `CN1CC2(CCCN(CCOCc3ccccc3)C2)OC1=O` (centres undefined) | 9.524 | 19.77 |
| `Cc1nc(NC(=O)C2(C)CN(C)CCO2)sc1C` (centres undefined) | 13.71 | - |
| `Cc1cc(C(=O)NC(C)C(=O)Nc2cc(F)ccc2C)nc(C)n1` (centres undefined) | 0.6873 | -16.14 |
| `CN(C)C(=O)N1CCN(c2ccc(Cl)nn2)C(=O)C1` | 12.57 | -34.44 |
| `CCn1cc(NC(=O)NCC(O)CN2CCc3ccccc3C2)cn1` (centres undefined) | 5.556 | -11.64 |
| `O=C(C1CCCC1)N1CCC(c2n[nH]c3nccnc23)CC1` | 11.06 | 3.59 |
| `Cc1noc2ncc(C(=O)NCC3CCOC3)cc12` (centres undefined) | 3.061 | -2.536 |
| `N#CCCN(Cc1cccnc1)C(=O)c1ccn(-c2ccccc2)n1` | 11.17 | -7.834 |
| `O=C(O)C(F)(F)F.[H][C@@]12OCCC[C@]1([H])N(C(=O)c1cnccn1)C[C@H]2OCc1ccncc1` | - | -42.11 |
| `CCCc1noc(CN2CCC(c3ccnn3CCO)CC2)n1` | 9.036 | -4.004 |
| `c1cc(CN2CCOC(Cn3cccn3)C2)c2c(c1)OCCO2` (centres undefined) | 16 | -0.5944 |

For reference, 3 entries once more:

Cc1cnc(N2CCc3c(cnc(C)c3C(=O)O)C2)nc1.O=C(O)C(F)(F)F gave Mtb heat-shock: -13.24%.
Fc1cccc(N2CCCC3(CN(Cc4ccco4)CCO3)C2)c1.O=C(O)C(F)(F)F.O=C(O)C(F)(F)F (centres undefined) gave Mtb heat-shock: 0.562%.
N#CCCN(Cc1cccnc1)C(=O)c1ccn(-c2ccccc2)n1 gave LdMetRS: 11.17%; Mtb heat-shock: -7.834%.